In PMC5973557:
Results are given in words; binding and its absence hold for the method and conditions named. In cells and extracts the contact can be indirect. Sequences can lack the tags named with a protein.

Amino acid sequences for entries named in this document (tags omitted).
UniProt Q10411: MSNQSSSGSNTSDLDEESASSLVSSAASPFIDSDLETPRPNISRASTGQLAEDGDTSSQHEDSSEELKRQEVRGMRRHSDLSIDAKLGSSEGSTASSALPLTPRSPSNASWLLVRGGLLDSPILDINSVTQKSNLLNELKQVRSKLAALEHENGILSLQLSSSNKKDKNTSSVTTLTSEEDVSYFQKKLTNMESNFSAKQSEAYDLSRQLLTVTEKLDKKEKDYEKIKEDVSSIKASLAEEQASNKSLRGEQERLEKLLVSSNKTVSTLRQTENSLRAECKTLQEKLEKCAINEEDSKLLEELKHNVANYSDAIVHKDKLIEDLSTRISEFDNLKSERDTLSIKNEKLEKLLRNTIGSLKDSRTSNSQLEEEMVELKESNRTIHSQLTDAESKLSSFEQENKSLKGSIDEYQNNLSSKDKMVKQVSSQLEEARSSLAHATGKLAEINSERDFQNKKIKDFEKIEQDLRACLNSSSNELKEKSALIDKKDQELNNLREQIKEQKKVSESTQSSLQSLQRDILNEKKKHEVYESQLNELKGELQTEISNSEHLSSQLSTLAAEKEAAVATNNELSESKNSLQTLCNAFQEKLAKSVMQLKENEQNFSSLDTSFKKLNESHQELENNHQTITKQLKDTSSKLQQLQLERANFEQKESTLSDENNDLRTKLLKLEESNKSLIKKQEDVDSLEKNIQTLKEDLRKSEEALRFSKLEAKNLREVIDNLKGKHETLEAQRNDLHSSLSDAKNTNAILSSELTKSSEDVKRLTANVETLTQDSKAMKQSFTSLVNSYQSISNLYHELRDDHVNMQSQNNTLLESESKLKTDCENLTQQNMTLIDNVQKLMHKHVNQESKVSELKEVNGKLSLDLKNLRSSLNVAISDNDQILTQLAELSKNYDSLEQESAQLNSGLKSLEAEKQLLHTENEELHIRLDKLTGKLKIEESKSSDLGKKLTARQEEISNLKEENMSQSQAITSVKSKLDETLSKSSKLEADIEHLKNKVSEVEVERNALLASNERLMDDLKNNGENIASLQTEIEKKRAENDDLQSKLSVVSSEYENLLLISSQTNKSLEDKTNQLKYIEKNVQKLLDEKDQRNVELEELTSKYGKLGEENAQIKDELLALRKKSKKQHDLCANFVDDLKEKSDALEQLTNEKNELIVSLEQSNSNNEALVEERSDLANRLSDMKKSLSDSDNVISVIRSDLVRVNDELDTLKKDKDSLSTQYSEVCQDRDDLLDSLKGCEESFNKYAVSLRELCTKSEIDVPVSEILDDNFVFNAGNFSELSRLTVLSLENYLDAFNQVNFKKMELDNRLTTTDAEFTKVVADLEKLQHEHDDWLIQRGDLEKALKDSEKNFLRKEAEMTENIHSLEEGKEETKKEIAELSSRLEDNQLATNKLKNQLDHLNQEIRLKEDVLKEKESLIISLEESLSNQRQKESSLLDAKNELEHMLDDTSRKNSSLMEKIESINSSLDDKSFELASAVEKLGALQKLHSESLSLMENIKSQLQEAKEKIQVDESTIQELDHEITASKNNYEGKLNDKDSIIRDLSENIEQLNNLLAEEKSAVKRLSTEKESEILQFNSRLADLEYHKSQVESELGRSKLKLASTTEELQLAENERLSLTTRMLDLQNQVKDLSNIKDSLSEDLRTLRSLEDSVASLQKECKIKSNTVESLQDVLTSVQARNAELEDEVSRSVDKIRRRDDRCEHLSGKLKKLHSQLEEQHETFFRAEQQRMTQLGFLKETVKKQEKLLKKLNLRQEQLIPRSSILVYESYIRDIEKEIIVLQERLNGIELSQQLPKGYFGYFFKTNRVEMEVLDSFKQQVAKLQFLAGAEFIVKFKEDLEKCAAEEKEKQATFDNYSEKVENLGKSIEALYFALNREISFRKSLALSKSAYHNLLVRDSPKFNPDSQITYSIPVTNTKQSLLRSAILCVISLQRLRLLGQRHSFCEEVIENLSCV

Molecular target: T1, GST-Dms1 (S. pombe) (UniProt O74466)
T1 sequence: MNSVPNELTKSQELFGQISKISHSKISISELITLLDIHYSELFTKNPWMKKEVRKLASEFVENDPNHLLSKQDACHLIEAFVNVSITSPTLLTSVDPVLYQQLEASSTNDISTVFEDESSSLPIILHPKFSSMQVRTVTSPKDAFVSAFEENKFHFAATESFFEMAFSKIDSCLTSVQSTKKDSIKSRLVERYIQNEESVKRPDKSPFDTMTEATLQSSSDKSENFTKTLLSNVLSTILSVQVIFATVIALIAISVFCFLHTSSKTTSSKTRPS
Assay: pull-down; cell extracts from vegetative S. pombe cells expressing GST or GST-Dms1; precipitates analysed by western blotting with anti-GFP or anti-Spo15 antibody (S3 Fig B)

binding: no binding
Substance: Spo15 (from UniProt Q10411 1-1957)
